Measurements reported in PubChem BioAssay AID1508588 (Peter MacCallum Cancer Centre, 2020)

- Test: 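Which gene losses make BRAF-mutant melanoma cells more responsive to vemurafenib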 (primary screen)
- System: human WM266.4 melanoma cells (BRAF V600 mutant)
- Reagents: siRNA pool against human genes, 40 nM
- Timing: 96 h from transfection to read-out
- Treatment: vemurafenib 300 nM (about IC25), added 48 h after transfection, for 48 h; comparison arm got DMSO vehicle only
- Read-out: 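Cell gain (DAPI nuclei at end minus before drug, mean of two replicates) and medium lactate by absorbance per cell, both as ratio to non-targeting siRNA, also grouped into fold-change classes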
- Reading the numbers: cell gain with vemurafenib: higher = more cell gain than with non-targeting siRNA; lactate per cell with vemurafenib: higher = more lactate made per cell
- Hit rule: 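Enhancement is called by pairing each knock-down's vehicle-arm and drug-arm fold-change classes for viability or glycolysis; which class combinations qualify is not given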
- Calls: active = enhances vemurafenib effect; inactive = no enhancement seen
The whole screen tested about 18,000 reagents; this is a part drawn at random. Over the whole deposit, 790 (4.4%) were called active. 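Calls rest on a combination of fold-change classes in drug and vehicle arms, not all shown here.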 A number with no mark means an inactive call. Reagent sequences are not shown.

C1orf146 | cell gain with vemurafenib = 0.44; lactate per cell with vemurafenib = 2.09
FAM241B | cell gain with vemurafenib = 0.77; lactate per cell with vemurafenib = 1
ADD3 | cell gain with vemurafenib = 0.58; lactate per cell with vemurafenib = 1.07
ABCB11 | cell gain with vemurafenib = 0.47; lactate per cell with vemurafenib = 1.4
PLCD1 | cell gain with vemurafenib = 0.63; lactate per cell with vemurafenib = 0.78
KCNS2 | cell gain with vemurafenib = 0.5; lactate per cell with vemurafenib = 1.4
SLC3A2 | cell gain with vemurafenib = 0.44; lactate per cell with vemurafenib = 0.7
IST1 | cell gain with vemurafenib = 0.06; lactate per cell with vemurafenib = 1.63
PEX6 | cell gain with vemurafenib = 0.26; lactate per cell with vemurafenib = 2.17
MRPS18C | cell gain with vemurafenib = 0.25; lactate per cell with vemurafenib = 0.5
PMPCA | cell gain with vemurafenib = 0.43; lactate per cell with vemurafenib = 0.62
SLC36A1 | cell gain with vemurafenib = 0.3; lactate per cell with vemurafenib = 0.64
RTL4 | cell gain with vemurafenib = 0.69; lactate per cell with vemurafenib = 0.89
GK | cell gain with vemurafenib = 0.73; lactate per cell with vemurafenib = 0.77
MC2R | cell gain with vemurafenib = 0.61 (active); lactate per cell with vemurafenib = 0.68
TAAR9 | cell gain with vemurafenib = 0.55; lactate per cell with vemurafenib = 0.51
FBXO10 | cell gain with vemurafenib = 0.6; lactate per cell with vemurafenib = 0.1
PDE6A | cell gain with vemurafenib = 0.33; lactate per cell with vemurafenib = 0.64
TDP1 | cell gain with vemurafenib = 0.83; lactate per cell with vemurafenib = 0.74
UNC80 | cell gain with vemurafenib = -0.01; lactate per cell with vemurafenib = 0.88
NONO | cell gain with vemurafenib = 0.85; lactate per cell with vemurafenib = 0.9
HSD3B7 | cell gain with vemurafenib = 0.5; lactate per cell with vemurafenib = 0.8
SLC29A4 | cell gain with vemurafenib = 0.6; lactate per cell with vemurafenib = 0.86
TMEM132E | cell gain with vemurafenib = 0.52; lactate per cell with vemurafenib = 0.74
DNAJC3 | cell gain with vemurafenib = 0.51; lactate per cell with vemurafenib = 0.86

The list goes on (3 carried over from the part before).
SLC29A4 | cell gain with vemurafenib = 0.6; lactate per cell with vemurafenib = 0.86
TMEM132E | cell gain with vemurafenib = 0.52; lactate per cell with vemurafenib = 0.74
DNAJC3 | cell gain with vemurafenib = 0.51; lactate per cell with vemurafenib = 0.86
LBH | cell gain with vemurafenib = 0.09; lactate per cell with vemurafenib = 1.5
CAND1 | cell gain with vemurafenib = 1.07; lactate per cell with vemurafenib = 1.21
BIRC3 | cell gain with vemurafenib = 0.97; lactate per cell with vemurafenib = 0.86
PGS1 | cell gain with vemurafenib = 0.9; lactate per cell with vemurafenib = 0.8
JPH1 | cell gain with vemurafenib = 0.53; lactate per cell with vemurafenib = 1.71
HERC3 | cell gain with vemurafenib = 0.47; lactate per cell with vemurafenib = 1.05
LPIN2 | cell gain with vemurafenib = 0.41; lactate per cell with vemurafenib = 1.12
RHEB | cell gain with vemurafenib = 0.75; lactate per cell with vemurafenib = 1.6
PDCD10 | cell gain with vemurafenib = 1.08; lactate per cell with vemurafenib = 0.84
FTSJ1 | cell gain with vemurafenib = 0.63; lactate per cell with vemurafenib = 1.31
OR2V2 | cell gain with vemurafenib = 0.61; lactate per cell with vemurafenib = 1.52
MAN2B2 | cell gain with vemurafenib = 0.7; lactate per cell with vemurafenib = 0.82
MORC3 | cell gain with vemurafenib = 0.66; lactate per cell with vemurafenib = 1.68
TRIM68 | cell gain with vemurafenib = 0.75; lactate per cell with vemurafenib = 0.74
ELOVL4 | cell gain with vemurafenib = 1.05; lactate per cell with vemurafenib = 0.66
SCAF1 | cell gain with vemurafenib = 0.12; lactate per cell with vemurafenib = 3.39
TMEM175 | cell gain with vemurafenib = 0.46; lactate per cell with vemurafenib = 0.74
NR1D2 | cell gain with vemurafenib = 0.4; lactate per cell with vemurafenib = 0.8
TCL6 | cell gain with vemurafenib = 0.62; lactate per cell with vemurafenib = 1.32
CLN8 | cell gain with vemurafenib = 0.74; lactate per cell with vemurafenib = 1.7
ACY1 | cell gain with vemurafenib = 0.49; lactate per cell with vemurafenib = 0.62
KCNA4 | cell gain with vemurafenib = 0.67 (active); lactate per cell with vemurafenib = 0.48
SLC7A14 | cell gain with vemurafenib = 1.08; lactate per cell with vemurafenib = 1.19
SLC25A16 | cell gain with vemurafenib = 0.59; lactate per cell with vemurafenib = 0.28
KCTD15 | cell gain with vemurafenib = 0.19; lactate per cell with vemurafenib = 1.49
GPBP1 | cell gain with vemurafenib = 0.38; lactate per cell with vemurafenib = 0.48
PCLAF | cell gain with vemurafenib = 0.76; lactate per cell with vemurafenib = 0.46
